These are yes or no findings as the source states them, for the method shown. Some entries that bind do so weakly or less than the wild type.
Molecular target: T1, recombinant GRP78 protein (human, UniProt P11021 19-650, limits assumed)
T1 construct: also called HSPA5/GRP78 (Active Protein) Human Protein (ORIGENE, Cat. No. AR03021PU-L); glucose-regulated protein 78
Assay: binding to recombinant GRP78 (Example 2: ELISA, Biacore)

The chains behind the UniProt entries cited, without tags or fusion partners. Residues count along the entry.
UniProt P11021, residues 19-650: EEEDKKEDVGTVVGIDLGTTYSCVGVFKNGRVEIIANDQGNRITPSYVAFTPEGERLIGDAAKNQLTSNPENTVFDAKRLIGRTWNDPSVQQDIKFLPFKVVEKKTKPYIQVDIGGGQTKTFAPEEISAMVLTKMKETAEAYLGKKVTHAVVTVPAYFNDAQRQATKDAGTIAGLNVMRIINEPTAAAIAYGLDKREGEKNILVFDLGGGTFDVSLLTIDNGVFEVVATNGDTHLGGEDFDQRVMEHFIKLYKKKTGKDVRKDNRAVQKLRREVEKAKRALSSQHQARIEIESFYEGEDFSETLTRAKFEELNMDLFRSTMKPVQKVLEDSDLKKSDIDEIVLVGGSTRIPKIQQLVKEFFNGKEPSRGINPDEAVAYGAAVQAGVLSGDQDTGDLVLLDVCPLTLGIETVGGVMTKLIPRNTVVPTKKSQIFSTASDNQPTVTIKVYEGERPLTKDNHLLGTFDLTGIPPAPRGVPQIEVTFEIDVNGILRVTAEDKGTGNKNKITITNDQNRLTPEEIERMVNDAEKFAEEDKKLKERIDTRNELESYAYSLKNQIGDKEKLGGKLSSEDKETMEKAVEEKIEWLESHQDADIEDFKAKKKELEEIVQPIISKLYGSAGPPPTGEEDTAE

B1: anti-GRP78 antibody G2D03 (antibody, V domains shown)
VH: EVQLVESGGGLVQPGGSLRLSCAASGFTFSQYAMAWVRQAPGKGLEWVSGISPYGSNTRYADSVKGRFTISRDNSKNTLYLQMNSLRAEDTAVYYCARNGGYSYTWFDLWGQGTLVTVSS
VL: DIQMTQSPSSLSASVGDRVTITCRASQSISSDLAWYQQKPGKAPKLLIYWASKLQSGVPSRFSGSGSGTDFTLTISSLQPEDFATYYCMQMYNTPPTFGQGTKVEIKR
notes: Detected with anti-human IgG; also called G2D03 mAb; anti-GRP78 monoclonal antibody (G2D03)
B1 was tested, and the binding was “binds”.

Source: patent US20250019426A1 (UCT BIOSCIENCE, published 2025)
